This note sets out measurements from ChEMBL document CHEMBL2062363, “Ligand-based design, in silico ADME-Tox filtering, synthesis and biological evaluation to discover new soluble 1,4-DHP-based CFTR activators” (Eur J Med Chem, 2012).

For the series the following is noted: buffer, 0.5 h, pH 7.4.

For `COC(=O)C1=C(C)NC(C)=C(C(=O)OC)C1c1ccccc1[N+](=O)[O-]` [NIFEDIPINE], the “log(solubility)” value was -4.18.
